Laboratory results published in patent publication US20080139573A1, “Treatment of resistant Schizophrenia and other CNS disorders” (Copharm, priority 2006, published 2008).
At least one compound was matched to its structure with a doubt left.

Tests used:
[1] = system: therapy refractory schizophrenic patient; assay: Case report: therapy refractory schizophrenia, switched to oral zuclopenthixol; type: in vivo, human; settings: appropriate doses, sufficient duration, significant troublesome residual symptoms remained
Description: Subject two diagnosed with therapy refractory schizophrenia for the first time The patient had been treated with appropriate doses and for sufficient duration with oral aripiprazole, oral loxapine and oral olanzapine at appropriate doses and for sufficient duration. Compliance with treatment was ascertained. […] The patient was then switched to oral zuclopenthixol.

[2] = system: therapy resistant schizophrenic patient; assay: Case reports: therapy resistant schizophrenic patients switched to oral zuclopenthixol; type: in vivo, human; settings: Case 1, oral, successive, appropriate doses and sufficient duration, compliance controlled
Description: Therapy resistant schizophrenic patient is a schizophrenic patient who has tried two successive antipsychotic agents for a period of 6 weeks at an appropriate dosage with no significant symptomatic relief of symptoms and who was compliant to pharmacological treatment. This definition comprises determining relief of symptoms by measurement on a clinical scale such as PANSS (positive and negative […] scale). The relief should correspond to a reduction of the PANSS scale of at least 20% after a period of 6 weeks treatment of an appropriate dosage. Lack of relief of symptoms should be assessed prospectively and should not be documented on the basis of historical information. Compliance to treatment should be documented through a third party such as nurse or care giver. […]
Case 3. […] After 8 weeks of treatment with zuclopenthixol, the patient was evaluated as having “much improved”, as confirmed by C.G.I. and P.A.N.S.S.
Case 4. […] After 8 weeks of treatment with zuclopenthixol, the patient was evaluated as having “much improved”, as confirmed by C.G.I. and P.A.N.S.S.
Case 5. […] After 8 weeks of treatment with zuclopenthixol, the patient was evaluated as having “much improved”, as confirmed by C.G.I. and P.A.N.S.S.

Cc1cc2c(s1)Nc1ccccc1N=C2N1CCN(C)CC1 [olanzapine]
response to previous antipsychotics [1]: significant relief of symptoms | response to previous antipsychotic agents [2]: did not respond
